Experimental findings from publication PMC3402432 are described below.

For experiment [1], the target named is GST-E7-Flag fusion protein of HPV10 E7 (human papillomavirus type 10 (HPV10)). Briefly: pull-down; 20 ug purified GST-E7-Flag incubated with 400 ug HaCaT lysate overnight at 4 C in binding buffer (20 mM Tris HCl pH 7.5, 0.6 mM EDTA, 70 mM NaCl, 0.01% NP-40, protease inhibitors); glutathione sepharose 4B 2 h at 4 C, five washes; immunoblot for pRb and GST; only the target purified. A general note: Immunoblotting shows a protein as a band on a membrane.

For experiment [2] the target is unchanged. Briefly: pull-down; 20 ug purified GST-E7-Flag incubated with 0.5 ug recombinant His-pRb overnight at 4 C in binding buffer (20 mM Tris HCl pH 7.5, 0.6 mM EDTA, 70 mM NaCl, 0.01% NP-40, protease inhibitors); glutathione sepharose 4B 2 h at 4 C, five washes; immunoblot for pRb, His and GST; both purified.

These are yes or no findings as the source states them, for the method shown. A result given as binding can be weak or reduced; the word gives no strength. For some assays here: Sequences can lack the tags named with a protein. For some assays here: Binding seen in cells or lysates may run through a third protein.

B1: retinoblastoma protein (pRb), endogenous in HaCaT keratinocytes (protein, UniProt P06400 1-928)
chain: MPPKTPRKTAATAAAAAAEPPAPPPPPPPEEDPEQDSGPEDLPLVRLEFEETEEPDFTALCQKLKIPDHVRERAWLTWEKVSSVDGVLGGYIQKKKELWGICIFIAAVDLDEMSFTFTELQKNIEISVHKFFNLLKEIDTSTKVDNAMSRLLKKYDVLFALFSKLERTCELIYLTQPSSSISTEINSALVLKVSWITFLLAKGEVLQMEDDLVISFQLMLCVLDYFIKLSPPMLLKEPYKTAVIPINGSPRTPRRGQNRSARIAKQLENDTRIIEVLCKEHECNIDEVKNVYFKNFIPFMNSLGLVTSNGLPEVENLSKRYEEIYLKNKDLDARLFLDHDKTLQTDSIDSFETQRTPRKSNLDEEVNVIPPHTPVRTVMNTIQQLMMILNSASDQPSENLISYFNNCTVNPKESILKRVKDIGYIFKEKFAKAVGQGCVEIGSQRYKLGVRLYYRVMESMLKSEEERLSIQNFSKLLNDNIFHMSLLACALEVVMATYSRSTSQNLDSGTDLSFPWILNVLNLKAFDFYKVIESFIKAEGNLTREMIKHLERCEHRIMESLAWLSDSPLFDLIKQSKDREGPTDHLESACPLNLPLQNNHTAADMYLSPVRSPKKKGSTTRVNSTANAETQATSAFQTQKPLKSTSLSLFYKKVYRLAYLRLNTLCERLLSEHPELEHIIWTLFQHTLQNEYELMRDRHLDQIMMCSMYGICKVKNIDLKFKIIVTAYKDLPHAVQETFKRVLIKEEEYDSIIVFYNSVFMQRLKTNILQYASTRPPTLSPIPHIPRSPYKFPSSPLRIPGGNIYISPLKSPYKISEGLPTPTKMTPRSRILVSIGESFGTSEKFQKINQMVCNSDRVLKRSAEGSNPPKPLKKLRFDIEGSDEADGSKHLPGESKFQQKLAEMTSTRTRMQKQKMNDSMDTSNKEEK
On to B1, for which, in experiment [1], the binding entry is recorded as “binds”.

B2: purified recombinant His-pRb (protein, UniProt P06400 1-928)
chain: MPPKTPRKTAATAAAAAAEPPAPPPPPPPEEDPEQDSGPEDLPLVRLEFEETEEPDFTALCQKLKIPDHVRERAWLTWEKVSSVDGVLGGYIQKKKELWGICIFIAAVDLDEMSFTFTELQKNIEISVHKFFNLLKEIDTSTKVDNAMSRLLKKYDVLFALFSKLERTCELIYLTQPSSSISTEINSALVLKVSWITFLLAKGEVLQMEDDLVISFQLMLCVLDYFIKLSPPMLLKEPYKTAVIPINGSPRTPRRGQNRSARIAKQLENDTRIIEVLCKEHECNIDEVKNVYFKNFIPFMNSLGLVTSNGLPEVENLSKRYEEIYLKNKDLDARLFLDHDKTLQTDSIDSFETQRTPRKSNLDEEVNVIPPHTPVRTVMNTIQQLMMILNSASDQPSENLISYFNNCTVNPKESILKRVKDIGYIFKEKFAKAVGQGCVEIGSQRYKLGVRLYYRVMESMLKSEEERLSIQNFSKLLNDNIFHMSLLACALEVVMATYSRSTSQNLDSGTDLSFPWILNVLNLKAFDFYKVIESFIKAEGNLTREMIKHLERCEHRIMESLAWLSDSPLFDLIKQSKDREGPTDHLESACPLNLPLQNNHTAADMYLSPVRSPKKKGSTTRVNSTANAETQATSAFQTQKPLKSTSLSLFYKKVYRLAYLRLNTLCERLLSEHPELEHIIWTLFQHTLQNEYELMRDRHLDQIMMCSMYGICKVKNIDLKFKIIVTAYKDLPHAVQETFKRVLIKEEEYDSIIVFYNSVFMQRLKTNILQYASTRPPTLSPIPHIPRSPYKFPSSPLRIPGGNIYISPLKSPYKISEGLPTPTKMTPRSRILVSIGESFGTSEKFQKINQMVCNSDRVLKRSAEGSNPPKPLKKLRFDIEGSDEADGSKHLPGESKFQQKLAEMTSTRTRMQKQKMNDSMDTSNKEEK
As to B2, the binding entry in experiment [2] is recorded as “binds”.
